# PubChem BioAssay AID445 (National Center for Advancing Translational Sciences (NCATS), 2006)
# Some of the results follow. These are further read-outs of the screen, such as a control signal, another cell line or another target. No call is given for them. Compounds called inactive in the main read-out are mostly missing here. The note in brackets gives the kind of curve behind each potency; many fits are weak.
# Test: IkB Signaling
# Settings: ABC-DLBCL IkBa-CBG/CBR dual luciferase ratio (green luciferase fused to IkBa over red control in OCI-Ly3 lymphoma cells), 4 h
# Summary of the method: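 Luminescence ratio of IκBα-fused green versus native red beetle luciferase in OCI-Ly3 cells, 4 h post-doxycycline with compound; red signal alone, scaled from basal (0%) to zero light (-100%), flagged nonspecific or cytotoxic effects.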
# [1] = measured here: control luc red channel unless noted
# [2] = measured here: IkB-luc green channel
# [3] = measured here: control luc red channel
smiles,measurement,setting,value
Cn1c(=O)c(=O)n(C)c2cc(NC(=O)c3ccccc3Br)ccc21,AC50,[1],"3.98 µM [falling, single point]"
CC(=O)N1CCc2c(sc3c2c(=O)n(Cc2ccccc2)c(=O)n3CC(=O)Nc2ccc(C)c(F)c2)C1,AC50,[1],"12.6 µM [falling, partial curve]"
COc1ccc(CN2C(=O)C(NC(=O)c3ccccc3OC)(C(F)(F)F)N=C2c2ccccc2)cc1 (stereo not drawn),AC50,[1],"10 µM [falling, partial curve]"
CCc1ccc(S(=O)(=O)c2nnn(-c3cccc(C)c3)c2N)cc1,AC50,[1],"31.6 µM [falling, partial curve]"
CCc1ccc(NC(=O)CCn2cnc3ccccc3c2=O)cc1,AC50,[1],"39.8 µM [falling, single point]"
COc1ccc(NC(=O)Cn2ccn(-c3ccccc3)c(=O)c2=O)cc1,AC50,[1],"31.6 µM [falling, single point]"
Cc1ccc(-c2nc3cccnc3s2)cc1NC(=O)Cc1ccccc1,AC50,[1],"12.6 µM [falling, partial curve]"
COc1ccccc1Nc1ncnc2c1nc1n2CCCC1,AC50,[1],"3.98 µM [rising, full curve]"
Cc1ccc(-n2nc(C)c3c(C(=O)Nc4ccc(Br)c(C)c4)cc(C)nc32)cc1,AC50,[1],"31.6 µM [falling, partial curve]"
COc1ccc(CCC(=O)NCc2ccc3c(c2)CCN3C(=O)c2ccc(C)cc2)cc1,AC50,[1],"31.6 µM [falling, partial curve]"
CSc1nnc(Cc2cc(=O)[nH]c(=O)[nH]2)n1-c1cccc(C)c1,AC50,[1],"12.6 µM [falling, partial curve]"
O=C(O)CCCCCN1C(=O)CSC1=S,AC50,[1],"1 µM [falling, partial curve]"
O=C(Nc1nnc(S(=O)(=O)N2CCOCC2)s1)c1ccc(F)cc1,AC50,[1],"3.16 µM [falling, partial curve]"
N#Cc1cccc(NC(=O)c2ccc3c(c2)N(Cc2cccc(Cl)c2)C(=O)c2ccccc2S3(=O)=O)c1,AC50,[1],"10 µM [falling, partial curve]"
O=C(c1ccc(F)cc1F)N1CCC(c2noc(-c3ccc(S(=O)(=O)N4CCCC4)cc3)n2)CC1,AC50,[1],"39.8 µM [falling, single point]"
COc1ccc(C[C@@H]2C(=O)N[C@H](C)C(=O)N(C)[C@@H]3Cc4ccc(cc4)Oc4cc(ccc4O)C[C@H](C(=O)N[C@@H](C)C(=O)N[C@H](C)C(=O)N2C)N(C)C3=O)cc1,AC50,[1],"0.0631 µM [falling, full curve]"
Cc1ccccc1-c1noc(-c2ccccc2OCC(=O)Nc2ccccc2[N+](=O)[O-])n1,AC50,[1],"12.6 µM [falling, partial curve]"
NC(=O)SCC(=O)Nc1ccc(Cl)c(Cl)c1,AC50,[2],"39.8 µM [rising, single point]"
same,AC50,[3],"7.94 µM [falling, partial curve]"
CCc1ccc(NC(=O)CN(Cc2ccccc2)S(=O)(=O)c2ccc3nc(C)sc3c2)cc1,AC50,[1],"10 µM [falling, partial curve]"
Cn1c(=O)oc2cc(S(=O)(=O)Nc3ccc(O)cc3)ccc21,AC50,[1],"25.1 µM [falling, partial curve]"
O=C1c2oc3ccc(Cl)cc3c(=O)c2C(c2cccc(Br)c2)N1CCO (stereo not drawn),AC50,[1],"7.94 µM [falling, partial curve]"
O=C(Nc1ccccc1C(F)(F)F)N1CCN(c2ccc3nnc(-c4ccc(F)cc4)n3n2)CC1,AC50,[1],"25.1 µM [falling, single point]"
O=C(CCn1cnc2onc(-c3ccc(F)cc3)c2c1=O)N1CCN(c2cccc(Cl)c2)CC1,AC50,[1],"12.6 µM [falling, partial curve]"
N#Cc1c(NC(=O)CSc2n[nH]c(Cc3ccccc3)n2)oc(-c2ccccc2)c1-c1ccccc1,AC50,[1],"3.98 µM [falling, full curve]"
CCc1ccc(NC(=O)C(=O)NCC(c2cccnc2)N2CCOCC2)cc1 (stereo not drawn),AC50,[1],"20 µM [falling, partial curve]"
CCc1ccc(NC(=O)c2cc3c(=O)n(Cc4cccnc4)ccc3nc2C)cc1,AC50,[1],"25.1 µM [falling, partial curve, poor fit]"
Cc1cccc(C(=O)Nc2cccc(OCc3cc(=O)n4c(C)csc4n3)c2)c1,AC50,[1],"15.8 µM [falling, partial curve]"
O=C(c1cccc(F)c1)N1CCN(C(=O)c2cc(-c3ccc(Cl)cc3Cl)on2)CC1,AC50,[1],"0.316 µM [falling, full curve]"
COc1ccc(NC(=O)Cc2csc(COc3cccc(C)c3)n2)c(OC)c1,AC50,[1],"31.6 µM [falling, single point]"
COc1ccc(Nc2nc(N)nc(CSc3nc4cc(OC)ccc4s3)n2)cc1,AC50,[1],"31.6 µM [falling, single point]"
O=C1C(Cl)=C(Sc2nnc3c4ccccc4c4ccccc4c3n2)C(=O)c2ccccc21,AC50,[1],"3.16 µM [falling, partial curve]"
COc1ccc(-c2noc(CCC(=O)NCc3ccc(OC)cc3OC)n2)cc1,AC50,[1],"25.1 µM [falling, single point]"
O=C(O)c1ccccc1Nc1cccc(C(F)(F)F)c1,AC50,[1],"10 µM [falling, partial curve]"
CCCN(CCC)CC(O)Cn1cc(/C=C/C(=O)c2ccc(OCC)cc2)c2ccccc21 (stereo not drawn),AC50,[1],"25.1 µM [falling, partial curve]"
CC[N+](C)(CC)CCC[n+]1c(-c2ccccc2)c2cc(N)ccc2c2ccc(N)cc21,AC50,[1],"12.6 µM [falling, partial curve]"
COc1ccccc1C1C=C(c2ccc(Cl)cc2)Nc2nc(-c3ccc(Cl)cc3)nn21 (stereo not drawn),AC50,[1],"12.6 µM [falling, partial curve]"
COc1ccc(Cl)cc1N(C)C(=O)C(=O)Nc1ccc2nc3n(c(=O)c2c1)CCCCC3,AC50,[1],"12.6 µM [falling, single point]"
O=C1CN(C(=O)OCc2ccccc2)c2ccccc2N1,AC50,[1],"3.98 µM [falling, partial curve]"
COc1ccc(NC(=O)CSc2nc(-c3ccccc3)nc3c2Cc2c(CO)cnc(C)c2O3)cc1Cl,AC50,[1],"0.316 µM [rising, full curve]"
COc1ccc(CCCO[C@@H](Cn2ccnc2)c2ccc(OC)cc2)cc1,AC50,[1],"39.8 µM [falling, partial curve]"
Cc1ccc(C)c(N2CCN(C(=O)C(C)n3c(C)c4cnn(-c5ccccc5)c(=O)c4c3C)CC2)c1 (stereo not drawn),AC50,[1],"20 µM [falling, partial curve]"
Cc1ccc(CNC(=O)c2c(-c3cccc(Br)c3)noc2C)o1,AC50,[1],"10 µM [falling, full curve, poor fit]"
COC(=O)c1ccc(OCC2c3cc(OC)c(OC)cc3CCN2C(=O)c2ccccc2F)cc1 (stereo not drawn),AC50,[1],"39.8 µM [falling, single point]"
CC(Nc1ccc(-c2nc(-c3ccccn3)no2)cc1[N+](=O)[O-])c1ccccc1 (stereo not drawn),AC50,[1],"12.6 µM [falling, partial curve]"
CCCCCn1c(=N)n(CC(O)COc2cccc(C)c2)c2ccccc21 (stereo not drawn),AC50,[1],"25.1 µM [falling, partial curve]"
CCCc1cc(C(=O)Cc2ccc(C(=O)OCC)o2)c(O)cc1O,AC50,[1],"25.1 µM [falling, partial curve]"
COc1ccc(S(=O)(=O)N2CCN(CC(=O)Nc3ccc(C)c(F)c3)CC2)cc1,AC50,[1],"31.6 µM [falling, partial curve]"
COc1ccc(S(=O)(=O)c2cnc(SCC(=O)Nc3cc(F)ccc3C)[nH]c2=O)cc1Cl,AC50,[1],"10 µM [falling, partial curve]"
CCC1CCCCN1C(=O)c1sc(-n2nc(C)c(Cc3ccccc3)c2C)nc1C (stereo not drawn),AC50,[1],"31.6 µM [falling, single point]"
Cc1ccc(Cl)cc1NC(=O)CN1C(=O)C(C)(C)c2cc(S(=O)(=O)N3CCCCC3)ccc21,AC50,[1],"3.16 µM [rising, single point]"
CC(=O)c1cccc(NC(=O)c2cc3c(s2)-c2c(C)cccc2OC3)c1,AC50,[1],"39.8 µM [falling, single point]"
CCOC(=O)c1c(S(=O)(=O)NCC(=O)NCc2ccccc2)c(C)n(C)c1C,AC50,[1],"0.794 µM [rising, partial curve]"
CCOC(=O)c1ccc(OC(=O)c2cn(-c3cccc(OC)c3)c(=O)c3ccccc23)cc1,AC50,[1],"5.01 µM [falling, partial curve]"
Cc1ccc(Cn2c(=S)[nH]c3ccc(N4CCOCC4)cc3c2=O)o1,AC50,[2],"3.98 µM [rising, single point]"
same,AC50,[3],"39.8 µM [falling, single point]"
Cc1cccc(Cc2c(C)nc3nc(SCC(=O)NCc4ccco4)nn3c2C)c1,AC50,[1],"10 µM [falling, partial curve]"
CCc1ccc2c(c1)NC(c1ccc(OC)cc1)=NC(c1ccncc1)=N2,AC50,[1],"31.6 µM [falling, single point]"
COc1cc(/C=C/c2nc(C#N)c(N3CCC(C)CC3)o2)cc(OC)c1OC,AC50,[1],"20 µM [falling, single point]"
COC(=O)CN1C(=O)CSc2ccc(S(=O)(=O)Nc3cccc(Cl)c3C)cc21,AC50,[1],"31.6 µM [falling, single point]"
Nc1c(-c2nc(-c3ccc(F)cc3)cs2)c2ccccn2c1C(=O)c1ccc2c(c1)OCO2,AC50,[1],"6.31 µM [falling, partial curve]"
Cc1cc(=O)n(CC(=O)N2CCN(c3ccc(F)cc3)CC2)c2c1c(C)nn2C,AC50,[1],"31.6 µM [falling, single point]"
FC(F)C(F)(F)C(F)(F)C(F)(F)c1cc(-c2ccccc2)n[nH]1,AC50,[1],"20 µM [falling, single point]"

# At a glance, some entries already given.
smiles,measurement,setting,value
Cc1cccc(Cc2c(C)nc3nc(SCC(=O)NCc4ccco4)nn3c2C)c1,AC50,[1],"10 µM [falling, partial curve]"
CCc1ccc2c(c1)NC(c1ccc(OC)cc1)=NC(c1ccncc1)=N2,AC50,[1],"31.6 µM [falling, single point]"
COc1cc(/C=C/c2nc(C#N)c(N3CCC(C)CC3)o2)cc(OC)c1OC,AC50,[1],"20 µM [falling, single point]"
COC(=O)CN1C(=O)CSc2ccc(S(=O)(=O)Nc3cccc(Cl)c3C)cc21,AC50,[1],"31.6 µM [falling, single point]"
Nc1c(-c2nc(-c3ccc(F)cc3)cs2)c2ccccn2c1C(=O)c1ccc2c(c1)OCO2,AC50,[1],"6.31 µM [falling, partial curve]"
